PubChem BioAssay AID504808, Drosophila RNAi Screening Center – 2011
Assay: 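Fly genes required to hold E2F transcription in check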 (primary screen). System: Drosophila S2 cells. Reagents: long dsRNA against Drosophila genes. Measurement: 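Firefly luciferase driven by E2F sites, normalised to Renilla luciferase on the same minimal promoter, measured by plate reader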. Scale: E2F firefly: higher = more E2F reporter activity; Renilla normaliser: higher = more normaliser reporter signal. Call rule: 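a knock-down counted as active when the firefly/Renilla E2F signal rose above 50%, a threshold chosen arbitrarily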.
The screen tested about 21,000 reagents; shown is an unselected part of those that have a named target and a result. Over the whole deposit, 18 (0.084%) were called active. 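Raw counts without plate normalisation, one of two replicates; the ratio scores behind the calls were not deposited.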 A plus sign joins genes that one reagent is predicted to hit. Not stated in the record: the amount of reagent, the time to read-out.

gene	DRSC id	E2F firefly, rep 1	Renilla normaliser, rep 1	Outcome
Pxd (GeneID 2768671)	DRSC16805	1.22e5	5932	inactive
kin17 (GeneID 40242)	DRSC11890	1.12e5	7794	inactive
lncRNA:CR42862 + CG33229	DRSC08497	85995	3684	inactive
rump (GeneID 41138)	DRSC16480	61959	4029	inactive
AcCoAS (GeneID 40348)	DRSC11477	1.04e5	3146	inactive
AcCoAS (GeneID 40348)	DRSC11603	97422	3859	inactive
Su(var)3-7 (GeneID 41627)	DRSC16872	1.07e5	5805	inactive
MED23 + CG3700	DRSC04406	88793	4115	inactive
MED23 + CG3700	DRSC04407	86042	4113	inactive
CG13599 (GeneID 42829)	DRSC14602	1.09e5	5734	inactive
CG11109 (GeneID 40507)	DRSC11633	83273	3857	inactive
Pex13 (GeneID 36462)	DRSC06877	2792	194	inactive
thoc6 (GeneID 39394)	DRSC10528	68467	3823	inactive
RpS20 (GeneID 42464)	DRSC16836	74073	8183	inactive
CG43333 (GeneID 34830)	DRSC01917	97481	4227	inactive
CG5281 (GeneID 41375)	DRSC15761	1.40e5	6183	inactive
CG14881 (GeneID 41990)	DRSC15005	1.03e5	5660	inactive
flr (GeneID 39505)	DRSC09787	73577	3645	inactive
eIF1 (GeneID 38398)	DRSC08520	1.07e5	4618	inactive
CG17717 (GeneID 31592)	DRSC18130	1.18e5	5755	inactive
CNT1 (GeneID 35915)	DRSC06082	1.50e5	5109	inactive
CG2871 (GeneID 31411)	DRSC18230	67892	4879	inactive
CG14352 (GeneID 33341)	DRSC00382	1.58e5	6577	inactive
CG34022 (retired record) (GeneID 3885663)	DRSC07949	1.40e5	4438	inactive
CG13405 (GeneID 38016)	DRSC08310	1.03e5	4235	inactive
CG10669 (GeneID 43069)	DRSC14261	80417	4483	inactive
Cyp12e1 (GeneID 41272)	DRSC16622	1.42e5	6080	inactive
CG17107 (GeneID 34467)	DRSC02575	1.52e5	5277	inactive

7 entries from above, showing only “E2F firefly, rep 1”.
Pxd (GeneID 2768671) [DRSC16805]	1.22e5
kin17 (GeneID 40242) [DRSC11890]	1.12e5
lncRNA:CR42862 + CG33229 [DRSC08497]	85995
rump (GeneID 41138) [DRSC16480]	61959
AcCoAS (GeneID 40348) [DRSC11477]	1.04e5
AcCoAS (GeneID 40348) [DRSC11603]	97422
Su(var)3-7 (GeneID 41627) [DRSC16872]	1.07e5

Next reagents follow.
gene	DRSC id	E2F firefly, rep 1	Renilla normaliser, rep 1	Outcome
RPA2 (GeneID 35364)	DRSC03184	81500	3287	inactive
CG13676 (GeneID 38906)	DRSC10035	84524	3493	inactive
CG15333 (GeneID 31720)	DRSC18016	66461	4402	inactive
CG15333 (GeneID 31720)	DRSC18153	1.15e5	5115	inactive
Csk (GeneID 41398)	DRSC12861	89568	2703	inactive
Csk (GeneID 41398)	DRSC15223	55129	2833	inactive
CG13250 (GeneID 40284)	DRSC11698	1.42e5	6397	inactive
AttC (GeneID 36484)	DRSC06886	87544	3973	inactive
E(spl)m7-HLH (GeneID 43160)	DRSC16696	1.17e5	6126	inactive
CG13117 (GeneID 34289)	DRSC02215	1.28e5	4748	inactive
CG9541 (GeneID 34220)	DRSC03257	1.64e5	5384	inactive
CG3280 (retired record) (GeneID 39117)	DRSC10356	93751	4917	inactive
Ntan1 (GeneID 37147)	DRSC07546	1.58e5	5645	inactive
CalpB (GeneID 39165)	DRSC11109	78396	3423	inactive
CG15390 (GeneID 33422)	DRSC00404	1.53e5	5504	inactive
Eig71Ei (GeneID 39710)	DRSC11156	1.62e5	7553	inactive
MP1 (GeneID 40541)	DRSC12124	67169	3453	inactive
CG4770 (GeneID 42375)	DRSC15639	1.49e5	7157	inactive
Sas-6 (GeneID 43555)	DRSC15061	1.21e5	6510	inactive
CG32708 (GeneID 318161)	DRSC18411	96834	5790	inactive
CG6333 (GeneID 39953)	DRSC10626	1.93e5	10246	inactive
CG31145 (GeneID 42784)	DRSC13634	91437	2487	inactive
CG31145 (GeneID 42784)	DRSC14206	82970	5190	inactive
CG31145 (GeneID 42784)	DRSC14670	61329	5315	inactive
CG31145 (GeneID 42784)	DRSC14671	91011	6372	inactive
ATPsynB (GeneID 39143)	DRSC09659	70689	3390	inactive
Gyc89Da (GeneID 42001)	DRSC15008	1.08e5	5441	inactive
CG31730 (GeneID 318920)	DRSC01308	1.41e5	6390	inactive
Atg1 (GeneID 39454)	DRSC09809	82673	3721	inactive
Atg1 (GeneID 39454)	DRSC09810	1.53e5	7820	inactive
